{
  "source": "paper PMC5654082",
  "about": "(Malaria Journal, 2017)",
  "test_system": "OCT2",
  "conditions": "fraction unbound * Cmax/IC50, cut-off value 0.1",
  "note": "Structures can show the parent of a compound that is named as a salt. Where two headings read alike, the source gives them in different places.",
  "data": [
    {"compound": "CCN(CC)Cc1cc(Nc2ccnc3cc(Cl)ccc23)ccc1O", "note": "[Amodiaquine, amodiaquine dihydrochloride dehydrate]", "values": [
      {"measurement": "DDI index (OCT2)", "value": 0.0001},
      {"measurement": "DDI index (OCT2)", "setting": "listed as AQ", "value": "below 0.1"}
    ]},
    {"compound": "[H]/N=C(\\N/C(=N/[H])Nc1ccc(Cl)cc1)NC(C)C", "note": "[Proguanil, proguanil hydrochloride]", "values": [
      {"measurement": "DDI index (OCT2)", "value": 0.02},
      {"measurement": "DDI index (OCT2)", "setting": "listed as PG", "value": "below 0.1"}
    ]},
    {"compound": "CCc1nc(N)nc(N)c1-c1ccc(Cl)cc1", "note": "[Pyrimethamine, pyrimethamine]", "values": [
      {"measurement": "DDI index (OCT2)", "value": 0.04}
    ]}
  ]
}
